Test results reported in the supplement of paper PMC10849652.
Some of the results follow.

Amino acid sequences for entries named in this document (tags omitted). A change or cut given only in a name is not applied to a line headed by its entry.
UniProt Q8NCG7: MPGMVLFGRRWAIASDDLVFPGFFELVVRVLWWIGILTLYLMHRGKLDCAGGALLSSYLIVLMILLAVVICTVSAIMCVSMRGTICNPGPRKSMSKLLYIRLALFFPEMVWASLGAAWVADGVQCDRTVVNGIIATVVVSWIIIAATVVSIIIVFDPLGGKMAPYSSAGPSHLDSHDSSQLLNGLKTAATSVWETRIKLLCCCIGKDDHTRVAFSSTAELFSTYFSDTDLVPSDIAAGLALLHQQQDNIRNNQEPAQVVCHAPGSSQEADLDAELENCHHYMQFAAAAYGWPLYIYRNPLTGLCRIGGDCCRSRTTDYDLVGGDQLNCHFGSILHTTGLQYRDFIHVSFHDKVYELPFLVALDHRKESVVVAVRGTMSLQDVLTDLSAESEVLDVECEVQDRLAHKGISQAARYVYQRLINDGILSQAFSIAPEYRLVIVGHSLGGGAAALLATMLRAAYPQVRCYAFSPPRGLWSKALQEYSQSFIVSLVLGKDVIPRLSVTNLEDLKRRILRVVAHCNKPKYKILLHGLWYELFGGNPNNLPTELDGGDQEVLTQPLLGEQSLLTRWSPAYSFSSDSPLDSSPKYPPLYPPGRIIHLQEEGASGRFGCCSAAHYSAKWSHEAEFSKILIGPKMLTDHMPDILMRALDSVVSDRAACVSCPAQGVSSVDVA
UniProt Q96C86: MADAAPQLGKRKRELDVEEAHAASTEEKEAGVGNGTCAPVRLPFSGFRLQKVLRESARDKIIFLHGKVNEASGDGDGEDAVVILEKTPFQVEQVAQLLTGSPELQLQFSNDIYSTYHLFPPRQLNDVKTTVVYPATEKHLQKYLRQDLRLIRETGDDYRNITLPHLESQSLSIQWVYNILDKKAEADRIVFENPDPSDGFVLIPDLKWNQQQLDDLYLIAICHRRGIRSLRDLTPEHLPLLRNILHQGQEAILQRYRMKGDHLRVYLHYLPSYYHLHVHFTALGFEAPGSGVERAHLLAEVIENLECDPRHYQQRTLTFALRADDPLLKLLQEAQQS
UniProt P04080: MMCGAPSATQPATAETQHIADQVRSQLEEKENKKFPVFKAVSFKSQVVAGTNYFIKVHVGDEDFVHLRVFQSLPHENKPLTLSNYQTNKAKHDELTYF
UniProt P17812: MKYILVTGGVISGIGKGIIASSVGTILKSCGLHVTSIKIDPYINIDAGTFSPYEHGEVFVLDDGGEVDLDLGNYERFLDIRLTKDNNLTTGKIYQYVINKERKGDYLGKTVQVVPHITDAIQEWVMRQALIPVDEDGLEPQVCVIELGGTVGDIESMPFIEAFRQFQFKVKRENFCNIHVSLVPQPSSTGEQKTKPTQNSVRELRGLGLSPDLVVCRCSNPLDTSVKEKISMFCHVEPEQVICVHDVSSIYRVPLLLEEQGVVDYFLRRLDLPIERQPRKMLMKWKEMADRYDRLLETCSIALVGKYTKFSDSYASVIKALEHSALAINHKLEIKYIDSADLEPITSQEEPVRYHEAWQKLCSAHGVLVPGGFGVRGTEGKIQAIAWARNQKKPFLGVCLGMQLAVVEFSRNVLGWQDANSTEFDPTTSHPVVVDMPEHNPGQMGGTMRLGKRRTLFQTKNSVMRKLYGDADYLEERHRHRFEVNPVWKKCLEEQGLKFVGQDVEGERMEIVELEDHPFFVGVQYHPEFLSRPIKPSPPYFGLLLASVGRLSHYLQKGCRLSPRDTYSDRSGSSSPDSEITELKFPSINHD
UniProt Q9H0L4: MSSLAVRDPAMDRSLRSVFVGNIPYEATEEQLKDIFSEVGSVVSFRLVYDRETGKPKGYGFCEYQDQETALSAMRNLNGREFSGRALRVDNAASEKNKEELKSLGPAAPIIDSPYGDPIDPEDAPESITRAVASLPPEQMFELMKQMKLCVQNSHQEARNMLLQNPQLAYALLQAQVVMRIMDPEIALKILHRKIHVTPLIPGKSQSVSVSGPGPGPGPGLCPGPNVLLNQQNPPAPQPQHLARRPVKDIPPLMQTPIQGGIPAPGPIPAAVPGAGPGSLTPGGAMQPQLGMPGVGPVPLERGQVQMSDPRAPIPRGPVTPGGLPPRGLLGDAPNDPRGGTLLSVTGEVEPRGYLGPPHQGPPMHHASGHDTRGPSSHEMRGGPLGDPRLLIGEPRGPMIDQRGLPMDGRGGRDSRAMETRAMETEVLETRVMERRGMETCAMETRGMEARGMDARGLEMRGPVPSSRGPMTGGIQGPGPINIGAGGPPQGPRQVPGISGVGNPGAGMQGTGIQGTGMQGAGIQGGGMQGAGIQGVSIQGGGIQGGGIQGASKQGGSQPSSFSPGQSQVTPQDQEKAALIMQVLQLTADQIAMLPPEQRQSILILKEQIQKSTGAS
UniProt Q96F07, whole entry, looked up: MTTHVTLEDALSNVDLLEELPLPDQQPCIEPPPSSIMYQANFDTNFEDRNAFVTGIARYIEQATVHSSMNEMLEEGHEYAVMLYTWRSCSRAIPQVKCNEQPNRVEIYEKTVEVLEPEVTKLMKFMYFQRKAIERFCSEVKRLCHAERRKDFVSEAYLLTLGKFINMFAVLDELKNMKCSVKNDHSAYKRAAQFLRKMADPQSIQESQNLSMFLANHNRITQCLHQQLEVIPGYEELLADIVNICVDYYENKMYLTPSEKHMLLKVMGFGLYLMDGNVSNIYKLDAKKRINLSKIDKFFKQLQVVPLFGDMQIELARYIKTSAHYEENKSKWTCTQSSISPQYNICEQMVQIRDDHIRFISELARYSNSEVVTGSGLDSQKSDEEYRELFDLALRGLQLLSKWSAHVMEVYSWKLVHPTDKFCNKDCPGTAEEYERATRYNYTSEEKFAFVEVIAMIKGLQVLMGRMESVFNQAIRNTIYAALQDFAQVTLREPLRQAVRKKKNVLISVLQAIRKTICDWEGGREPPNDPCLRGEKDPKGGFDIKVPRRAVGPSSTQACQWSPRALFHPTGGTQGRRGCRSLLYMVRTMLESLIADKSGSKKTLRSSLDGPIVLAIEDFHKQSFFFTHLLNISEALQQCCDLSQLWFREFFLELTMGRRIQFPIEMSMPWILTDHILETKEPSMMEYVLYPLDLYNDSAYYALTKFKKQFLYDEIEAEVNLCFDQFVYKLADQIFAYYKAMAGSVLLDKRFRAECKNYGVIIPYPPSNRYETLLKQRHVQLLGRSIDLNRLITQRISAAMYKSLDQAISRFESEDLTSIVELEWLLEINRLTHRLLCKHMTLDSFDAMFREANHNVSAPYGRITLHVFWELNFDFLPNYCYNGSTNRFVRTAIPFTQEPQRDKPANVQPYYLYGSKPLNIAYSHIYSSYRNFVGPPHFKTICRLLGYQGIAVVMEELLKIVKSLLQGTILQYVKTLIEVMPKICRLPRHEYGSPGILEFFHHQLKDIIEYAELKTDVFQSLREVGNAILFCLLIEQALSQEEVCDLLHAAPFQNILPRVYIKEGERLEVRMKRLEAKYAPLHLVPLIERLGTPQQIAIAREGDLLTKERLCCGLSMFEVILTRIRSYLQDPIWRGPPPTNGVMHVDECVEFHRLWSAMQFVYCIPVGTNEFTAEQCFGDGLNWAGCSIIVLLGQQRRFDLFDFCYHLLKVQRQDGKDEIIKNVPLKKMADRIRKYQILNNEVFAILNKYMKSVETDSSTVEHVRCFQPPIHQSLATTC
UniProt P27707: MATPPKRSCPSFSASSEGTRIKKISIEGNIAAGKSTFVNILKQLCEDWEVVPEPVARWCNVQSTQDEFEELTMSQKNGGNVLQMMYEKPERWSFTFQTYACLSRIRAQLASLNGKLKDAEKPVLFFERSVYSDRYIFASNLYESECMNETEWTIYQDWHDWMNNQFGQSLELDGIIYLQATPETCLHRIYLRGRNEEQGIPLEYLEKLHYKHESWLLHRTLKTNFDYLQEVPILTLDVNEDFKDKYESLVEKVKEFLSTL
UniProt Q8TEB1, whole entry, looked up: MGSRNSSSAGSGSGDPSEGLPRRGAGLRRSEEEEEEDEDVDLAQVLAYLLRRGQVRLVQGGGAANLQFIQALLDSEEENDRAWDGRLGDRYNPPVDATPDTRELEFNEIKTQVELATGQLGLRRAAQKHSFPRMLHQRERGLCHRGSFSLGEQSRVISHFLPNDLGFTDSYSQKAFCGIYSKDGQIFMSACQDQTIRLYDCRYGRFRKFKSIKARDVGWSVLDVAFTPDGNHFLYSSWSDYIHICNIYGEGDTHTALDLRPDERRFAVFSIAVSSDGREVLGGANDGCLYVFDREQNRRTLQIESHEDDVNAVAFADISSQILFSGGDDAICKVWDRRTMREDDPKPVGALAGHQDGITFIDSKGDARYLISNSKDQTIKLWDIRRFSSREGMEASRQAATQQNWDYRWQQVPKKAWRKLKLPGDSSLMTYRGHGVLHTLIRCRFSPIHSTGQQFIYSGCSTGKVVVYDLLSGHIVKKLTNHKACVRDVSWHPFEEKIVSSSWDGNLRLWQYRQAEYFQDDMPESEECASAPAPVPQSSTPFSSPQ
UniProt O75935, whole entry, looked up: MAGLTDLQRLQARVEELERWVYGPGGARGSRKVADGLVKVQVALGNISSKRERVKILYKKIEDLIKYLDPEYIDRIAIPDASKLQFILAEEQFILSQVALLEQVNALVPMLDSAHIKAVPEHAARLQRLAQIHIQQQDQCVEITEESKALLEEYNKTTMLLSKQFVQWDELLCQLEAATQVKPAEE
UniProt Q8NA75: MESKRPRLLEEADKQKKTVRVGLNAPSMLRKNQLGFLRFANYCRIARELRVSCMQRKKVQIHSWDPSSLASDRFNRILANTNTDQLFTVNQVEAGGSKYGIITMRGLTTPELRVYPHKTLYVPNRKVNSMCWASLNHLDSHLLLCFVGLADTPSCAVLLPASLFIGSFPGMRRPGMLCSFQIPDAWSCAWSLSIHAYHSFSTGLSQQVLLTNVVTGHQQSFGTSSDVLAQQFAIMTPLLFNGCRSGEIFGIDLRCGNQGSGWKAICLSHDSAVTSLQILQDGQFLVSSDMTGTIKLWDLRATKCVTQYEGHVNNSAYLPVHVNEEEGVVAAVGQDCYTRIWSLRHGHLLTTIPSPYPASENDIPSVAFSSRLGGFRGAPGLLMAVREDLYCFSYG
UniProt Q7L1T6: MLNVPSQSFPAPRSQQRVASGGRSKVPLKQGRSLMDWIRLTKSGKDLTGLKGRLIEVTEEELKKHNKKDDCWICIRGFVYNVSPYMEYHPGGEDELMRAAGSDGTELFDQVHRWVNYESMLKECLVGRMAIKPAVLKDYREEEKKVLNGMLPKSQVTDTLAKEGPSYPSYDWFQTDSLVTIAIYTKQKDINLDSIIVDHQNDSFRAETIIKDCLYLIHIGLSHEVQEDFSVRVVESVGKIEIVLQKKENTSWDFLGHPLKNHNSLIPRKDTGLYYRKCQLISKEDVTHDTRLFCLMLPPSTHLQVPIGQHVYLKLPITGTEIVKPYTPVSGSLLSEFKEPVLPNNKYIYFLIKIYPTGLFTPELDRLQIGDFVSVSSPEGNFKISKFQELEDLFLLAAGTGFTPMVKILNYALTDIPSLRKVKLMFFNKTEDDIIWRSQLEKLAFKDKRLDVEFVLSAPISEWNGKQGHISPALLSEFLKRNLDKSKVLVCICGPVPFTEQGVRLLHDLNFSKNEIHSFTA
UniProt Q8WUE5: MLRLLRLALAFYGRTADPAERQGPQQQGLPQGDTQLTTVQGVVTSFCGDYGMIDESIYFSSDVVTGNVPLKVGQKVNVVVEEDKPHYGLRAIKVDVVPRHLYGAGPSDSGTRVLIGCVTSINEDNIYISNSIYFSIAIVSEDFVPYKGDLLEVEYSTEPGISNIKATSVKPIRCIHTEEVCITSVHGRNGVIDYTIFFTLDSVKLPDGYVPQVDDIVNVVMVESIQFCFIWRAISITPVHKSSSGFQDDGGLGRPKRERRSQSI
UniProt P0DMU8: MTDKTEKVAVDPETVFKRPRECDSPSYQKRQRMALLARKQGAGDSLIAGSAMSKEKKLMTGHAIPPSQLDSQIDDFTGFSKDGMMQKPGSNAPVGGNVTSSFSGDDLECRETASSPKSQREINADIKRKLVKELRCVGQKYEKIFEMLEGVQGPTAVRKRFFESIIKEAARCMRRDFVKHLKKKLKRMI
UniProt E9PJD7, whole entry, looked up: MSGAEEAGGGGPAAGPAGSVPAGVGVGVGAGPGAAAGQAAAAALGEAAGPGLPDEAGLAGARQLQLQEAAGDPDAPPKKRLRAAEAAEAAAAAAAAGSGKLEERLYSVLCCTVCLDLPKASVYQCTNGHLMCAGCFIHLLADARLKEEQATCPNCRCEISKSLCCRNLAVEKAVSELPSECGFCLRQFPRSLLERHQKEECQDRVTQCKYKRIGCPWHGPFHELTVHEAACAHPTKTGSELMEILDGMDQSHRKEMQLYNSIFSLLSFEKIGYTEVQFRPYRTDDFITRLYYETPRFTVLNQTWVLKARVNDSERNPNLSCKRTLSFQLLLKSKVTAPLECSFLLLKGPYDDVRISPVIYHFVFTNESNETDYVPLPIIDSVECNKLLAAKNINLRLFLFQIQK

Experiments:
Test in all cases: log2 fold change, soluble protein after heating vs DMSO (PISA); higher = thermal stabilisation; K562 cells, 10 uM, 30 min; active = over 0.2 and 3.5 SD of the protein, either way, in both replicates (recomputed)
saracatinib = compound: CN1CCN(CCOc2cc(OC3CCOCC3)c3c(Nc4c(Cl)ccc5c4OCO5)ncnc3c2)CC1 [saracatinib]
How it was run: (§1)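 K562 cells at 2×10^6 cells/mL were exposed to 10 μM compound for 30 min, then aliquots were heated for 3 min across 48°C-58°C, pooled, and extracted in PBS containing 0.5% NP-40 at 4°C. The supernatant after 21,000xg for 90 min was taken as soluble protein and measured by TMTpro 16plex LC-MS/MS with channel sums equalised. Thermal stability is reported relative to control samples, with values from duplicates. Fold changes are given on a log2 scale.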

sotrastaurin = compound: CN1CCN(c2nc(C3=C(c4c[nH]c5ccccc45)C(=O)NC3=O)c3ccccc3n2)CC1 [sotrastaurin]
How it was run: as §1

alvocidib = compound: CN1CC[C@H](c2c(O)cc(O)c3c(=O)cc(-c4ccccc4Cl)oc23)[C@H](O)C1 [alvocidib]
How it was run: as §1

Tubastatin A = compound: CN1CCc2c(c3ccccc3n2Cc2ccc(C(=O)NO)cc2)C1 [Tubastatin A]
How it was run: as §1

[1] = compound: CNC(=O)C1=CC=CC=C1NC2=NC(=NC=C2Cl)NC3=C(C=C(C=C3)N4CCOCC4)OC
How it was run: as §1

defactinib = compound: CNC(=O)c1ccc(Nc2ncc(C(F)(F)F)c(NCc3nccnc3N(C)S(C)(=O)=O)n2)cc1 [defactinib]
How it was run: as §1

rucaparib = compound: CNCc1ccc(-c2[nH]c3cc(F)cc4c3c2CCNC4=O)cc1 [rucaparib]
How it was run: as §1

[2] = compound: CNc1nc(-c2ccc3c(N)n[nH]c3c2)cc(N2C[C@@H](C(=O)NC3CCCCC3)CC[C@H]2C)n1
How it was run: as §1

encorafenib = compound: COC(=O)N[C@@H](C)CNc1nccc(-c2cn(C(C)C)nc2-c2cc(Cl)cc(NS(C)(=O)=O)c2F)n1 [encorafenib]
How it was run: as §1

[3] = compound: COC(=O)[C@H](CCSC)NC(=O)C1=C(C=C(C=C1)NC[C@H](CS)N)C2=CC=CC=C2
How it was run: as §1

[4] = compound: COC1=CC=C(C=C1)CN2C=CC3=C2C=C(C=C3)C(=O)NO
How it was run: as §1

filanesib = compound: CON(C)C(=O)N1N=C(c2cc(F)ccc2F)S[C@@]1(CCCN)c1ccccc1 [filanesib]
How it was run: as §1

zotarolimus = compound: CO[C@H]1C[C@@H]2CC[C@@H](C)[C@@](O)(O2)C(=O)C(=O)N2CCCC[C@H]2C(=O)O[C@H]([C@H](C)C[C@@H]2CC[C@H](n3cnnn3)[C@H](OC)C2)CC(=O)[C@H](C)/C=C(\C)[C@@H](O)[C@@H](OC)C(=O)[C@H](C)C[C@H](C)/C=C/C=C/C=C/1C [zotarolimus]
How it was run: as §1

idasanutlin = compound: COc1cc(C(=O)O)ccc1NC(=O)[C@@H]1N[C@@H](CC(C)(C)C)[C@](C#N)(c2ccc(Cl)cc2F)[C@H]1c1cccc(Cl)c1F [idasanutlin]
How it was run: as §1

alisertib = compound: COc1cc(Nc2ncc3c(n2)-c2ccc(Cl)cc2C(c2c(F)cccc2OC)=NC3)ccc1C(=O)O [alisertib]
How it was run: as §1

[5] = compound: COc1cc2nc(-c3cc(F)ccc3O)nc(N[C@@H]3CNC[C@H]3C(C)(C)O)c2cc1OC
How it was run: as §1

gefitinib = compound: COc1cc2ncnc(Nc3ccc(F)c(Cl)c3)c2cc1OCCCN1CCOCC1 [gefitinib]
How it was run: as §1

[6] = compound: COc1cccc2cc(-c3nc([C@H]4CC[C@H](C(=O)O)CC4)n4ncnc(N)c34)[nH]c12
How it was run: as §1

lapatinib = compound: CS(=O)(=O)CCNCc1ccc(-c2ccc3ncnc(Nc4ccc(OCc5cccc(F)c5)c(Cl)c4)c3c2)o1 [lapatinib]
How it was run: as §1

pictilisib = compound: CS(=O)(=O)N1CCN(Cc2cc3nc(-c4cccc5[nH]ncc45)nc(N4CCOCC4)c3s2)CC1 [pictilisib]
How it was run: as §1

Measured: log2 fold change

DAGLB (UniProt Q8NCG7)
inactive: saracatinib -0.028 | sotrastaurin 0.026 | alvocidib -0.07 | Tubastatin A 0.072 | [1] 0.019 | defactinib -0.041 | rucaparib 0.01 | [2] -0.046 | encorafenib -0.019 | [3] 0.02 | [4] -0.06 | filanesib -0.023 | zotarolimus -0.013 | idasanutlin -0.056 | alisertib 0.007 | [5] 0.045 | gefitinib 0.025 | [6] 0.081 | lapatinib -0.03 | pictilisib 0.033

DCPS (UniProt Q96C86)
inactive: saracatinib 0.041 | sotrastaurin 0.021 | alvocidib 0.009 | Tubastatin A -0.002 | [1] -0.049 | defactinib -0.007 | rucaparib -0.043 | [2] -0.045 | encorafenib -0.029 | [3] 0.006 | [4] -0.024 | filanesib -0.015 | zotarolimus -0.004 | idasanutlin 0.006 | alisertib -0.089 | [5] 0.023 | gefitinib 0.013 | [6] 0.035 | lapatinib -0.016 | pictilisib 0.003

CSTB (UniProt P04080)
inactive: saracatinib -0.017 | sotrastaurin -0.05 | alvocidib -0.024 | Tubastatin A -0.004 | [1] 0.013 | defactinib -0.039 | rucaparib -0.1 | [2] 0.016 | encorafenib 0.023 | [3] 0.006 | [4] 0.03 | filanesib -0.006 | zotarolimus -0.018 | idasanutlin 0.008 | alisertib 0.033 | [5] -0.064 | gefitinib -0.029 | [6] 0.127 | lapatinib -0.111 | pictilisib -0.092

CTPS1 (UniProt P17812)
inactive: saracatinib 0.027 | sotrastaurin 0.031 | alvocidib -0.014 | Tubastatin A -0.048 | [1] -0.046 | defactinib -0.013 | rucaparib -0.032 | [2] -0.026 | encorafenib -0.026 | [3] 0.02 | [4] -0.017 | filanesib -0.063 | zotarolimus -0.013 | idasanutlin -0.043 | alisertib -0.053 | [5] 0.019 | gefitinib -0.001 | [6] 0.017 | lapatinib 0.001 | pictilisib 0.029

CSTF2T (UniProt Q9H0L4)
inactive: saracatinib -0.005 | sotrastaurin 0.014 | alvocidib 0.058 | Tubastatin A -0.018 | [1] 0.011 | defactinib 0.09 | rucaparib 0.012 | [2] -0.028 | encorafenib -0.08 | [3] -0.019 | [4] -0.009 | filanesib -0.003 | zotarolimus -0.01 | idasanutlin 0 | alisertib -0.036 | [5] 0.08 | gefitinib -0.018 | [6] -0.001 | lapatinib -0.059 | pictilisib 0.014

2 records picked at random from those above, as already listed:
DCPS (UniProt Q96C86)
inactive: saracatinib 0.041 | sotrastaurin 0.021 | alvocidib 0.009 | Tubastatin A -0.002 | [1] -0.049 | defactinib -0.007 | rucaparib -0.043 | [2] -0.045 | encorafenib -0.029 | [3] 0.006 | [4] -0.024 | filanesib -0.015 | zotarolimus -0.004 | idasanutlin 0.006 | alisertib -0.089 | [5] 0.023 | gefitinib 0.013 | [6] 0.035 | lapatinib -0.016 | pictilisib 0.003

CTPS1 (UniProt P17812)
inactive: saracatinib 0.027 | sotrastaurin 0.031 | alvocidib -0.014 | Tubastatin A -0.048 | [1] -0.046 | defactinib -0.013 | rucaparib -0.032 | [2] -0.026 | encorafenib -0.026 | [3] 0.02 | [4] -0.017 | filanesib -0.063 | zotarolimus -0.013 | idasanutlin -0.043 | alisertib -0.053 | [5] 0.019 | gefitinib -0.001 | [6] 0.017 | lapatinib 0.001 | pictilisib 0.029

(listing goes on)

CTNNA1 isoform 2 (UniProt P35221)
inactive: saracatinib 0.042 | sotrastaurin 0.012 | alvocidib -0.02 | Tubastatin A 0.05 | [1] -0.003 | defactinib -0.038 | rucaparib -0.076 | [2] -0.012 | encorafenib -0.002 | [3] 0.015 | [4] 0.021 | filanesib -0.011 | zotarolimus -0.016 | idasanutlin -0.057 | alisertib 0.062 | [5] -0.001 | gefitinib -0.008 | [6] 0.004 | lapatinib -0.005 | pictilisib -0.052

CYFIP2 (UniProt Q96F07)
inactive: saracatinib 0.004 | sotrastaurin 0.007 | alvocidib -0.042 | Tubastatin A -0.014 | [1] 0.027 | defactinib -0.08 | rucaparib -0.008 | [2] -0.024 | encorafenib -0.026 | [3] -0.02 | [4] 0.039 | filanesib -0.041 | zotarolimus -0.023 | idasanutlin -0.019 | alisertib 0.015 | [5] 0.02 | gefitinib 0.02 | [6] 0.014 | lapatinib 0.051 | pictilisib -0.005

DCK (UniProt P27707)
inactive: saracatinib -0.05 | sotrastaurin 0.083 | alvocidib 0.004 | Tubastatin A -0.02 | [1] -0.08 | defactinib -0.048 | rucaparib 0.042 | [2] -0.002 | encorafenib -0.055 | [3] 0.029 | [4] 0.156 | filanesib 0.004 | zotarolimus 0 | idasanutlin -0.006 | alisertib -0.026 | [5] -0.023 | gefitinib -0.056 | [6] 0.047 | lapatinib 0.01 | pictilisib 0.142

DCAF11 (UniProt Q8TEB1)
inactive: saracatinib 0.042 | sotrastaurin 0.033 | alvocidib 0.005 | Tubastatin A 0.055 | [1] -0.037 | defactinib -0.017 | rucaparib 0.023 | [2] -0.032 | encorafenib 0 | [3] -0.044 | [4] 0.015 | filanesib -0.108 | zotarolimus -0.01 | idasanutlin -0.007 | alisertib -0.054 | [5] 0.032 | gefitinib -0.009 | [6] 0.049 | lapatinib 0.016 | pictilisib 0.052

DCTN3 (UniProt O75935)
inactive: saracatinib -0.029 | sotrastaurin -0.015 | alvocidib -0.084 | Tubastatin A 0.04 | [1] 0.098 | defactinib -0.028 | rucaparib 0.049 | [2] 0.001 | encorafenib 0.053 | [3] -0.027 | [4] 0.053 | filanesib -0.006 | zotarolimus 0.008 | idasanutlin -0.037 | alisertib 0.032 | [5] 0.046 | gefitinib -0.004 | [6] -0.017 | lapatinib 0.012 | pictilisib 0.065

DCAF4L2 (UniProt Q8NA75)
inactive: saracatinib -0.003 | sotrastaurin -0.016 | alvocidib -0.055 | Tubastatin A 0.076 | [1] 0.016 | defactinib 0.033 | rucaparib -0.012 | [2] 0.056 | encorafenib 0.057 | [3] 0.019 | [4] -0.055 | filanesib 0.042 | zotarolimus -0.001 | idasanutlin -0.028 | alisertib -0.057 | [5] 0.092 | gefitinib 0.101 | [6] 0.054 | lapatinib 0.026 | pictilisib -0.01

CXorf38 (UniProt Q8TB03)
inactive: saracatinib -0.009 | sotrastaurin 0 | alvocidib -0.081 | Tubastatin A -0.02 | [1] 0.06 | defactinib -0.045 | rucaparib 0.011 | [2] -0.065 | encorafenib -0.004 | [3] 0.036 | [4] 0.012 | filanesib -0.034 | zotarolimus -0.024 | idasanutlin -0.015 | alisertib 0 | [5] 0.085 | gefitinib 0.08 | [6] 0.017 | lapatinib 0.004 | pictilisib 0.026

CYB5R4 (UniProt Q7L1T6)
inactive: saracatinib -0.001 | sotrastaurin 0.041 | alvocidib -0.001 | Tubastatin A 0.032 | [1] 0.008 | defactinib -0.006 | rucaparib 0.034 | [2] 0.038 | encorafenib -0.02 | [3] -0.024 | [4] -0.017 | filanesib -0.044 | zotarolimus 0.015 | idasanutlin -0.062 | alisertib 0.029 | [5] 0.052 | gefitinib 0.013 | [6] 0.06 | lapatinib 0.02 | pictilisib 0.026

CT55 (UniProt Q8WUE5)
inactive: saracatinib -0.08 | sotrastaurin -0.041 | alvocidib -0.051 | Tubastatin A 0.017 | [1] -0.02 | defactinib -0.073 | rucaparib -0.01 | [2] 0.003 | encorafenib 0.032 | [3] 0.02 | [4] -0.061 | filanesib 0.013 | zotarolimus 0.026 | idasanutlin -0.012 | alisertib 0 | [5] 0.013 | gefitinib 0.065 | [6] 0.044 | lapatinib 0.017 | pictilisib 0.008

CT45A5 (UniProt P0DMU8)
inactive: saracatinib -0.034 | sotrastaurin -0.035 | alvocidib 0.131 | Tubastatin A 0.016 | [1] 0.029 | defactinib 0.264 | rucaparib 0.117 | [2] 0.043 | encorafenib 0.085 | [3] 0.001 | [4] -0.054 | filanesib 0.225 | zotarolimus 0.032 | idasanutlin 0.133 | alisertib -0.048 | [5] -0.102 | gefitinib -0.06 | [6] -0.091 | lapatinib 0.095 | pictilisib -0.137

CYHR1 (UniProt E9PJD7)
inactive: saracatinib 0.025 | sotrastaurin -0.001 | alvocidib -0.078 | Tubastatin A 0.002 | [1] 0.017 | defactinib -0.073 | rucaparib 0.026 | [2] -0.121 | encorafenib 0.03 | [3] 0.003 | [4] -0.127 | filanesib 0.002 | zotarolimus -0.077 | idasanutlin 0.031 | alisertib 0.003 | [5] -0.002 | gefitinib 0.07 | [6] 0.017 | lapatinib -0.042 | pictilisib -0.003
